Literature values, collected in US12349704B2, “High quality cultured meat, compositions and methods for producing same” (ALEPH FARMS LTD., priority 2018, dated 2025).

Details: crystalline powder

solubility in water: insoluble in water
Structure (SMILES): COC1=C(OC)C(=O)C(C/C=C(\C)CC/C=C(\C)CC/C=C(\C)CC/C=C(\C)CC/C=C(\C)CC/C=C(\C)CC/C=C(\C)CC/C=C(\C)CC/C=C(\C)CCC=C(C)C)=C(C)C1=O [CoQ10, Coenzyme Q10]
